Test results from PMC4808003.
These are yes or no findings as the source states them, for the method shown. Binding seen in cells or lysates may run through a third protein. Some results given as binding are weak or reduced against the parent protein; the word gives no strength.

Chains of the proteins cited; added tags and fusions are not shown.
UniProt O14746: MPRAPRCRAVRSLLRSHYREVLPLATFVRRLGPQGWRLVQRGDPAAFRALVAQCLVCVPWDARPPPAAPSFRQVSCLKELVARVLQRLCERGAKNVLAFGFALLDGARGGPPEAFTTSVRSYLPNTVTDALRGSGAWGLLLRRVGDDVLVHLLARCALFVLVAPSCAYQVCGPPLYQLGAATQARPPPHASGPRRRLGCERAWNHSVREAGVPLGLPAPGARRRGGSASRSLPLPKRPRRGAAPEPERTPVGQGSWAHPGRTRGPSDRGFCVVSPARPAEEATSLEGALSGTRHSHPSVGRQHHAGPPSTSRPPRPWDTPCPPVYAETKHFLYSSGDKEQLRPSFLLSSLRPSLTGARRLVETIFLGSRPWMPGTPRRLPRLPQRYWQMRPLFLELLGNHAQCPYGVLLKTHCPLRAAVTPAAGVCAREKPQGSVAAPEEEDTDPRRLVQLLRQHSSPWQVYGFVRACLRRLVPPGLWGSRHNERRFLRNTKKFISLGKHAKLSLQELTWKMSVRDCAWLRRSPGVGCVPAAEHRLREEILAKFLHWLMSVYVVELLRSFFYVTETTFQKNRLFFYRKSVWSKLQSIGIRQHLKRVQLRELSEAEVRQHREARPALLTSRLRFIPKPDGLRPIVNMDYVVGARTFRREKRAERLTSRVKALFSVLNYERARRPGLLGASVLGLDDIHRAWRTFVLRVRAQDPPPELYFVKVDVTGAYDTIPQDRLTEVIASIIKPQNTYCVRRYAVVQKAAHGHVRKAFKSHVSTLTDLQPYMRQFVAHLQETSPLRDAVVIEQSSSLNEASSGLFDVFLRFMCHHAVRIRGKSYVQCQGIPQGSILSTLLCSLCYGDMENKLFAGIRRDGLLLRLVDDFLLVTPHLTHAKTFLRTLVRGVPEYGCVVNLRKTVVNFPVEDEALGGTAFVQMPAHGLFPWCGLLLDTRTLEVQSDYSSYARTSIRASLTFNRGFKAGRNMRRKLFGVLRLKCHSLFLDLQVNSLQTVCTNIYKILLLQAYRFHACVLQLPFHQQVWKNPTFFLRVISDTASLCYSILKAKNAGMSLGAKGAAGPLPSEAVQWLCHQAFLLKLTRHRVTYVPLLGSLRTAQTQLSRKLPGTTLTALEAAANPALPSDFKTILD

Biological target: human telomerase reverse transcriptase (hTERT) (human (endogenous in HCT116)) (UniProt O14746)
Assay: co-IP; HCT116 lysates, endogenous proteins; precleared with anti-rabbit IgG magnetic beads, IP with anti-hTERT, anti-ZEB1 or rabbit IgG for 4 h at 4°C (Universal Magnetic Co-IP Kit); western blot

binding: binds
B1: ZEB1 (zinc-finger E-box binding homeobox 1) (protein, UniProt P37275 1-1124)
chain: MADGPRCKRRKQANPRRNNVTNYNTVVETNSDSDDEDKLHIVEEESVTDAADCEGVPEDDLPTDQTVLPGRSSEREGNAKNCWEDDRKEGQEILGPEAQADEAGCTVKDDECESDAENEQNHDPNVEEFLQQQDTAVIFPEAPEEDQRQGTPEASGHDENGTPDAFSQLLTCPYCDRGYKRFTSLKEHIKYRHEKNEDNFSCSLCSYTFAYRTQLERHMTSHKSGRDQRHVTQSGCNRKFKCTECGKAFKYKHHLKEHLRIHSGEKPYECPNCKKRFSHSGSYSSHISSKKCISLIPVNGRPRTGLKTSQCSSPSLSASPGSPTRPQIRQKIENKPLQEQLSVNQIKTEPVDYEFKPIVVASGINCSTPLQNGVFTGGGPLQATSSPQGMVQAVVLPTVGLVSPISINLSDIQNVLKVAVDGNVIRQVLENNQANLASKEQETINASPIQQGGHSVISAISLPLVDQDGTTKIIINYSLEQPSQLQVVPQNLKKENPVATNSCKSEKLPEDLTVKSEKDKSFEGGVNDSTCLLCDDCPGDINALPELKHYDLKQPTQPPPLPAAEAEKPESSVSSATGDGNLSPSQPPLKNLLSLLKAYYALNAQPSAEELSKIADSVNLPLDVVKKWFEKMQAGQISVQSSEPSSPEPGKVNIPAKNNDQPQSANANEPQDSTVNLQSPLKMTNSPVLPVGSTTNGSRSSTPSPSPLNLSSSRNTQGYLYTAEGAQEEPQVEPLDLSLPKQQGELLERSTITSVYQNSVYSVQEEPLNLSCAKKEPQKDSCVTDSEPVVNVIPPSANPINIAIPTVTAQLPTIVAIADQNSVPCLRALAANKQTILIPQVAYTYSTTVSPAVQEPPLKVIQPNGNQDERQDTSSEGVSNVEDQNDSDSTPPKKKMRKTENGMYACDLCDKIFQKSSSLLRHKYEHTGKRPHECGICKKAFKHKHHLIEHMRLHSGEKPYQCDKCGKRFSHSGSYSQHMNHRYSYCKREAEERDSTEQEEAGPEILSNEHVGARASPSQGDSDERESLTREEDEDSEKEEEEEDKEMEELQEEKECEKPQGDEEEEEEEEEVEEEEVEEAENEGEEAKTEGLMKDDRAESQASSLGQKVGESSEQVSEEKTNEA
